Screening data, single-dose tests

Toxoplasma: 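Assay of Toxoplasma gondii numbers, read through their beta-galactosidase reporter with a colour substrate. Compounds at 10 µM. The record gives no direction; the compounds picked for IC50 retests had high values, so higher reads as fewer parasites. About 67,000 compounds were tested under these conditions; 0.38% (about 260) showed 50% or more at least once.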
Leishmania in macrophages: 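Cell assay of Leishmania donovani living inside macrophages; the read-out is not stated. Compounds at 30 µM. Direction is inferred from retests: higher values go with stronger inhibition. About 69,000 compounds were tested under these conditions; 1.5% (about 1,000) showed 50% or more at least once.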

Values are the deposited “Percent Effect”, in %.
The record does not define 0% and 100%; most values in the screen are far below 50% and negative numbers occur (in some assays of this library far below -100).
The compounds are a random part of those screened.
Two or more numbers in one place are separate tests of the same structure; such repeats can differ widely.
A dash means the value is not listed here; it may have been measured.

| structure | Toxoplasma | Leishmania in macrophages |
|---|---|---|
| `Cc1nc(CCCNC(=O)c2c(F)cccc2Br)n[nH]1` | 3.142% | 6.333% |
| `COc1cccc(OC)c1-c1ccnc2cc(CC(=O)N(C)C)nn12` | -9.011% | 27.89% & 2.818% |
| `CCc1nc(CN(C)Cc2nc(-c3ccccc3Cl)oc2C)no1` | 8.135% | -26.16% |
| `CC(=O)N1CCN(CCNC(=O)NC(C)Cn2ccnc2)CC1` (stereo not shown) | 1.147% | -7.778% |
| `Cc1cc(CN2CCC(N(C)Cc3nnc(C4CC4)n3C)C2)on1` (stereo not shown) | -35.82% | 28.99% |
| `[H][C@]12CC[C@]([H])(CN(S(=O)(=O)N(C)C)C1)N(C(=O)c1cccc(C)n1)C2` | - | 13.83% |
| `CCC(=O)N1CCCC(C(=O)c2cnn(-c3ccc(F)cc3)c2N)C1` (stereo not shown) | 8.479% | 41.45% |
| `CC(C)N1CCOCC2(CCCN(C(=O)CCc3cccnc3)C2)C1.O=C(O)C(F)(F)F` (stereo not shown) | -6.498% | 29.97% |
| `CN(C)C(=O)c1cnc2n1CCN(Cc1ccccc1)C2.O=C(O)C(F)(F)F` | -2.052% | -2.641% |
| `Cc1ccc(CN(CC(=O)NC2CCOCC2)c2ccc(F)cc2)o1` | -1.598% | 16.13% |
| `COCC(=O)NC[C@@]1(COc2cccnc2)C[C@@H](O)[C@@H](O)C1.Cl` | -3.347% | -3.857% |
| `Cc1cc(C)nc(N2CCC(CNC(=O)c3ccccn3)CC2)n1` | 12.88% | -13.87% & -1.05% |
| `O=C(O)C(F)(F)F.O=C(O)C(F)(F)F.O=C(c1ccnnc1)N1CCN(Cc2ccncc2)c2ncccc2C1` | 12.63% | 0.3794% |
| `CC(C)(C(=O)NCc1ccc(C#N)cc1)n1cc(Br)cn1` | 1.444% | 19.86% |
| `CCNC(=O)Nc1c(C)cnn1Cc1cc(F)ccc1F` | - | 3.57% |
| `Cc1ccc(CN2CCN(C(=O)CCc3nc(Cl)n[nH]3)CC2=O)cc1` | 8.355% | -8.914% |
| `CN1CC(=O)N(c2cnn(C)c2)CC12CCN(C(=O)c1ccsc1)C2.O=C(O)C(F)(F)F` (stereo not shown) | -25.9% | -38.73% |
| `CC(C)(C)NC(=O)COc1ccc(Oc2ccccn2)cc1` | 10.02% | 10.45% |
| `O=C(O)c1cccc(N2C[C@H](NC(=O)C3CCOCC3)[C@@H](C3CC3)C2)n1` | 4.734% | 17.12% |
| `Cn1cc(CCCNC(=O)NC2CCN(c3ccccc3)C2=O)cn1` (stereo not shown) | -1.436% | 24.74% |
| `CCO[C@H]1CN(C)C[C@@H]1NC(=O)c1c[nH]nc1C1CCCCC1` | 0.7572% | -4.409% |
| `Cc1ccc(C(=O)N2CCCC(CNS(=O)(=O)C(C)C)C2)cc1` (stereo not shown) | -6.481% | 15.39% |
| `Cl.O=C1CC2(CCCNC2)C(=O)N1Cc1ccc(F)cc1` (stereo not shown) | 1.901% | 14.19% |
| `CCc1sc(-c2nnc(CNC(C)Cn3cccn3)o2)cc1C` (stereo not shown) | 1.357% | -1.714% |
| `CN(C)Cc1cc(=O)n2c(n1)CN(CC1CC1)CCC2` | 3.108% | 14.92% |
| `CC1CCCN(C(=O)c2cccc(CS(C)(=O)=O)c2)C1` (stereo not shown) | 2.03% | -3.444% |
| `CSC(C)C(=O)N1CCCN(Cc2nccn2C)CC1` (stereo not shown) | 0% | 16.41% |
| `CCN(Cc1cc(F)c(OC)c(Cl)c1)Cc1noc(CC(C)C)n1` | 15.97% | 11.84% |
| `COc1ccccc1OC1(C(=O)O)CCN(c2ncccc2F)CC1` | 7.728% | 23.78% |
| `Cn1cc(N2CCN(c3ccc(C#N)cc3F)CC2=O)cn1` | -3.319% | 21.37% |
| `COCCCn1c(CN2CCCCO2)cnc1S(=O)(=O)C1CCCC1` | 16.45% | 15.32% |
| `CC(C)(C)n1cc(C2=CCN(CCc3ccccn3)CC2)cn1` | -6.229% | 6.553% |
| `c1cnn(CC2CCCN2Cc2nc(-c3ccoc3)no2)c1` (stereo not shown) | 10.99% | -37.38% |
| `Cc1cn([C@H]2CCNC[C@]2(C)O)c(=O)[nH]c1=O` | -26.95% | 15.99% |
| `Cc1ccc(CC(=O)N2CCCC(c3nc(C)cs3)C2)cn1` (stereo not shown) | 1.939% | 15.95% |
| `COCc1nn(CC2CC2)c2c1CN(Cc1cccs1)CC2.O=C(O)C(F)(F)F` | 1.207% | 2.864% |
| `Cc1ccc(NC2CCN(C(=O)CCc3ccccc3)CC2)nn1` | -19.76% | 30.2% |
| `Cc1c(CN2CCC(C(=O)O)(n3ccnc3)CC2)oc2ccccc12` | -8.038% | 23.11% |
| `COc1ccc(F)c(NCc2cnn(C3CCS(=O)(=O)C3)c2)c1` (stereo not shown) | -2.775% | -15.45% |
| `Cc1ccc(C)c(OC2CCN(C(=O)c3ccc(C)[nH]c3=O)CC2)c1` | -9.315% | 28.23% |
| `Cc1nn(C)c(C)c1C(=O)N1CCOCC1CC(=O)c1ccco1` (stereo not shown) | -2.464% | 10.19% |
| `COc1ccc(CNC(=O)NCCCNS(C)(=O)=O)cc1OC` | 10.62% | 19.83% |
| `Cc1nnc(NCC(c2cccs2)N2CCCC2)c(C#N)c1C` (stereo not shown) | 16.17% | 21.84% |
| `COc1ccccc1CC1CCCN(CC(=O)N2CCOCC2)C1` (stereo not shown) | 1.477% | 9.232% |
| `[H][C@@]12CS(=O)(=O)C[C@]1([H])N(Cc1ncc[nH]1)CCN2C/C=C/c1ccccc1` | 6.397% | -3.389% |
| `COc1ncccc1CNC(=O)c1ccco1` | -1.402% | 12.19% |
| `c1cnn(C2CN(c3nc(-c4ccncc4)nc4c3CCC4)C2)c1` | -49.59% | 25.91% |
| `O=C1OCCN1C1CCN(Cc2cc3n(n2)CCCNC3)CC1` | -3.371% | -13.2% |
| `O[C@@H]1C[C@@H](c2nc(Cc3ccccc3)no2)N(Cc2ccc(F)cc2)C1` | 12.84% | 6.796% |
| `CC(C)n1c2ccccc2c2c1cc(C(=O)NCCO)n2C(=O)N(C)C` | 8.354% | 31.65% |
| `COc1cc(C(N)=O)c(N(C)S(C)(=O)=O)cc1OC` | -5.304% | 0.5177% |
| `O=C(Nc1cccnc1)N1CCC(n2ccc(C(F)(F)F)n2)CC1` | 1.533% | 15.61% |
| `CC(C)CCC(=O)N1CCN(C(=O)c2ccc3nccn3c2)CC1` | -7.18% | 0.7364% |
| `N#Cc1cccc(C(=O)N2CCCC(C(=O)CCc3ccccc3)C2)c1` (stereo not shown) | -8.963% | -20.05% |
| `CC(C)COC1CCN(C(=O)c2cc3ccccc3c(=O)[nH]2)CC1` | 1.684% | -5.736% |
| `COc1ccc(CNC(=O)N(C)CC(C)(C)O)cc1OC` | 6.964% | -12.45% |
| `CN(Cc1cc2n(n1)CCNC2)Cc1cc(-c2ccccn2)no1` | 1.402% | 6.107% |
| `CCn1nccc1CN(C)C(=O)Cn1nc(C)c(C)c1C` | -45.57% | 6.99% |
| `CN1C(=O)C2(CCN(CC3CCC3)C2)c2ccccc21.O=C(O)C(F)(F)F` (stereo not shown) | 5.801% | 14.66% |
| `CC(C)(C)c1ccc(=O)n(CN2CCCC(C(F)(F)F)C2)n1` (stereo not shown) | 4.769% | -1.365% |
| `O=C(O)C(F)(F)F.O=C(O)C(F)(F)F.[H][C@@]12C[C@@H](Oc3cccc(F)c3)CN1CCN(C(=O)c1ccncc1)C2` | 8.867% | 17.65% |
| `CCOC(=O)c1c(NC(=O)CN2CCN(C(C)=O)CC2)sc(C)c1C` | 12.54% | 29.91% |
| `CCn1nc(C)c2c1cnn2CC(=O)N1CCN(C)CC1` | 7.863% | 19.47% |
| `Cc1c(OCC(=O)NCc2ccccc2Cl)c(=O)ccn1C` | -9.63% | 21.35% |
| `COCC(=O)N1CCC(C(=O)Nc2ccc(C(C)=O)cc2)CC1` | 6.482% | -31.91% |
| `CC(C)(C)n1ncc2c1NC(=O)CC2c1c(F)cccc1F` (stereo not shown) | 0.3414% | -42.43% |
| `Cc1cc(CN2CCOC(CNc3cccnn3)C2)on1` (stereo not shown) | -30.91% | 15.16% |
| `CN(C)c1ncc(-c2cccc(C(N)=O)c2)c(C2CNCCO2)n1.Cl` (stereo not shown) | -0.6367% | 42.16% |
| `CCN(C)C(=O)c1ccnn1-c1ccc2ccccn12` | -0.2697% | 2.253% |
| `O=C(O)C(F)(F)F.O=C(O)C(F)(F)F.[H][C@@]12C[C@@H](OCc3cccnc3)CN1CCN(C(=O)c1ccc(F)cc1)C2` | -0.7852% | 42.48% |
| `O=C(Cc1ccccc1)NCc1ccc(-c2ccccc2C(=O)O)cn1` | -22.99% | 18.65% |
| `O=C(c1ccsc1)N1CCc2onc(CN3CCOCC3)c2C1` | -0.8368% | 11.35% |
| `COCCOC[C@]1(CNCc2ccc(F)cc2)C[C@@H](O)[C@@H](O)C1.Cl` | -6.306% | -1.332% |
| `Cc1noc(C)c1CN1CCC2(CC1)C(c1ccccc1)CC(=O)N2C.O=C(O)C(F)(F)F` (stereo not shown) | 11.51% | 16.95% |
| `CCCn1ccnc1-c1cccc(NC(=O)[C@H]2CCC(=O)N2)c1` | -35.21% | 13.87% |
| `COc1cccc(N2CC3(CCN(Cc4nccn4C)C3)CC2=O)c1.O=C(O)C(F)(F)F` (stereo not shown) | 6.678% | 13.83% |
| `Cc1ccccc1CC(=O)N1CCOCC1c1c(C)n[nH]c1C` (stereo not shown) | -19.95% | 3.128% |
| `O=C(CN1CCCC1COc1ccccc1)NCc1ccccn1` (stereo not shown) | 2.461% | 12.68% |
| `O=C(Cc1ccc2c(c1)OCCO2)N1CCN(c2cnccn2)CC1` | -16.88% | 30.63% |
| `COc1cccc(N2CCN(Cc3cc(C)cc(F)c3)CC2=O)c1` | 30.87% | -14.54% |
| `Cc1ncoc1C(=O)N1CCOC(Cc2ccccc2)C1` (stereo not shown) | -13.1% | 9.416% |
| `Cc1ccsc1C1CC(=O)Nc2c1cnn2C(C)C` (stereo not shown) | 10.24% | -5.32% |
| `Cn1cccc1C(=O)N1CCCn2nc(CCC(=O)NC3CC3)cc2C1` | 7.186% | -21.05% |

Data taken from ChEMBL document CHEMBL3988442, “University of Dundee, Small-Polar-MMV Screening Library” (2021).